Results as given in the supplement of paper PMC6733853.

By UniProt entry, the sequences of proteins in these tests, tags left out.
UniProt P33535, whole entry: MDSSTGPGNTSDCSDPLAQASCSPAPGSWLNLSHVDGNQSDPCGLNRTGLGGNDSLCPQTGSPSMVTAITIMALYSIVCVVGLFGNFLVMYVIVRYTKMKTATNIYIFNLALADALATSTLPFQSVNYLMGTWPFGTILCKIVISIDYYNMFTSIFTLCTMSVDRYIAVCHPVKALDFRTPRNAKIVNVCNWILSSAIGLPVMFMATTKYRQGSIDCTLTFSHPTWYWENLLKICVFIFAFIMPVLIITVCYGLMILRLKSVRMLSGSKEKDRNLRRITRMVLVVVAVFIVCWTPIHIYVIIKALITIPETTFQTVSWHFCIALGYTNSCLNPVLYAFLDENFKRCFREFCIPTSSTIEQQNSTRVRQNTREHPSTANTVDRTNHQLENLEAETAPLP

Target: mu opioid receptor (rat) (UniProt P33535)
Settings: receptor: rat MOR

`COc1cccc(C2(O)CCCCC2CN(C)C)c1` (stereo not given) [Tramadol] was tested, and the pEC50 (Gαi1) was 4.82, the pEC50 (Gαi2) was 5.09 and the pEC50 (Gαo) was 4.79. It also gave a pEC50 (Kir) of 4.54 and a pEC50 (cAMP) of 5.41.
